Laboratory results from patent publication EP1435356A1, “Quinoline derivatives as CRTH2 antagonists” (Warner-Lambert Company LLC, priority 2003, dated 2004).
Some entries share one result that the patent states for a list of compounds.

Target: T1, CRTH2 (Homo sapiens, UniProt Q9Y5Y4)
T1 construct: expressed in transfected cells; host or cells: L1.2 cells (membrane preparation)
T1 sequence (Q9Y5Y4 1-395): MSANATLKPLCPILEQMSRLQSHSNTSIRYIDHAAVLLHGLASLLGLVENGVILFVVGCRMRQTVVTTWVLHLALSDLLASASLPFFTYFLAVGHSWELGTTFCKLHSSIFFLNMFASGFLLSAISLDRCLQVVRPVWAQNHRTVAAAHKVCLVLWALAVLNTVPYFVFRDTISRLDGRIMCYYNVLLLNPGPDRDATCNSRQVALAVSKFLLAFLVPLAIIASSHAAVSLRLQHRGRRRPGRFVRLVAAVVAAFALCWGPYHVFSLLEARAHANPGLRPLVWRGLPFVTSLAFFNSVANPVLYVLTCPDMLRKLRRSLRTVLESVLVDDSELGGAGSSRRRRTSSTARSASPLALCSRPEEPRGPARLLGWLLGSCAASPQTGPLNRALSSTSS
Test: Binding test (3H-PGD2 competition, SPA)
Conditions: competition with 3H-PGD2 for binding to membranes from CRTH2-expressing L1.2 cells, SPA beads, room temperature, at least 1 hour

Q: How did the IC50 turn out when `CC(=O)N(c1ccccc1)[C@@H]1C[C@H](C)N(C(=O)c2oc(C)nc2C)c2ccccc21` (relative stereo) [Example 61, Cis-N-[1-(2,4-Dimethyl-oxazole-5-carbonyl)-2-methyl-1,2,3,4-tetrahydro-quinolin-4-yl]-N-phenyl-acetamide] was run?
A: < 5 µM

Q: For `CC(=O)N(c1ccccc1)[C@@H]1C[C@H](C)N(C(=O)c2cnsn2)c2ccccc21` (relative stereo) [Example 76, Cis-N-[2-Methyl-1-([1,2,5]thiadiazole-3-carbonyl)-1,2,3,4-tetrahydro-quinolin-4-yl]-N-phenyl-acetamide], which IC50 is on record?
A: < 5 µM

Q: For `CC(=O)N(c1ccccc1)[C@@H]1C[C@H](C)N(C(=O)c2cc(CC(C)C)nn2C)c2ccccc21` (relative stereo) [Example 53, Cis-N-[1-(5-Isobutyl-2-methyl-2H-pyrazole-3-carbonyl)-2-methyl-1,2,3,4-tetrahydro-quinolin-4-yl]-N-phenyl-acetamide], which IC50 is on record?
A: < 5 µM

Q: For `CC(=O)N(c1ccccc1)[C@@H]1C[C@H](C)N(C(=O)c2cc(C)on2)c2ccccc21` (relative stereo) [Example 32, Cis-N-[2-Methyl-1-(5-methyl-isoxazole-3-carbonyl)-1,2,3,4-tetrahydro-quinolin-4-yl]-N-phenyl-acetamide], which IC50 is on record?
A: < 5 µM

Q: For `CC(=O)N(c1ccccc1)[C@@H]1C[C@H](C)N(C(=O)c2ccc3ccccc3n2)c2ccccc21` (relative stereo) [Example 64, Cis-N-[2-Methyl-1-(quinoline-2-carbonyl)-1,2,3,4-tetrahydro-quinolin-4-yl]-N-phenyl-acetamide], which IC50 is on record?
A: < 5 µM

Q: For `CC(=O)N(c1ccccc1)[C@@H]1C[C@H](C)N(C(=O)c2ccc(Cl)cc2)c2ccccc21` (relative stereo) [Example 10, Cis-N-[1-(4-Chloro-benzoyl)-2-methyl-1,2,3,4-tetrahydro-quinolin-4-yl]-N-phenyl-acetamide], which IC50 is on record?
A: < 5 µM

Q: How did the IC50 turn out when `CC(=O)N(c1ccccc1)[C@@H]1C[C@H](C)N(C(=O)c2ccc(Br)o2)c2ccccc21` (relative stereo) [Example 54, Cis-N-[1-(5-Bromo-furan-2-carbonyl)-2-methyl-1,2,3,4-tetrahydro-quinolin-4-yl]-N-phenyl-acetamide] was run?
A: < 5 µM

Q: Which IC50 does the source give for `CC(=O)N(c1ccccc1)[C@@H]1C[C@H](C)N(C(=O)c2sc(C)nc2C)c2ccccc21` (relative stereo) [Example 37, Cis-N-[1-(2,4-Dimethyl-thiazole-5-carbonyl)-2-methyl-1,2,3,4-tetrahydro-quinolin-4-yl]-N-phenyl-acetamide] here?
A: < 5 µM

Q: `CC(=O)N(c1ccccc1)[C@@H]1C[C@H](C)N(C(=O)c2ccc(C(=O)O)cc2)c2ccccc21` (relative stereo) [Example 12, 4-[Cis-4-(Acetyl-phenyl-amino)-2-methyl-3,4-dihydro-2H-quinoline-1-carbonyl]-benzoic acid] was tested. Which IC50 did it give?
A: < 5 µM

Q: With `CC(=O)N(c1ccccc1)[C@@H]1C[C@H](C)N(C(=O)c2nc(C(C)(C)C)cs2)c2ccccc21` (relative stereo) [Example 43, Cis-N-[1-(4-tert-Butyl-thiazole-2-carbonyl)-2-methyl-1,2,3,4-tetrahydro-quinolin-4-yl]-N-phenyl-acetamide] as the molecule, how does the IC50 read?
A: < 5 µM

Q: For `CC(=O)N(c1ccccc1)[C@@H]1C[C@H](C)N(C(=O)c2ccc(-c3ccccc3)nc2)c2ccccc21` (relative stereo) [Example 55, Cis-N-[2-Methyl-1-(6-phenyl-pyridine-3-carbonyl)-1,2,3,4-tetrahydro-quinolin-4-yl]-N-phenyl-acetamide], which IC50 is on record?
A: < 5 µM

Q: `CC(=O)N(c1ccccc1)[C@@H]1C[C@H](C)N(C(=O)c2ccc3nccc(O)c3c2)c2ccccc21` (relative stereo) [Example 42, Cis-N-[1-(4-Hydroxy-quinoline-6-carbonyl)-2-methyl-1,2,3,4-tetrahydro-quinolin-4-yl]-N-phenyl-acetamide] was tested. Which IC50 did it give?
A: < 5 µM

Q: For `CC(=O)N(c1ccccc1)[C@@H]1C[C@H](C)N(C(=O)c2ccncc2)c2ccccc21` (relative stereo) [Example 3, Cis-N-[2-Methyl-1-(pyridine-4-carbonyl)-1,2,3,4-tetrahydro-quinolin-4-yl]-N-phenyl-acetamide], which IC50 is on record?
A: < 5 µM

Q: How did the IC50 turn out when `COc1ccsc1C(=O)N1c2ccccc2[C@H](N(C(C)=O)c2ccccc2)C[C@@H]1C` (relative stereo) [Example 73, Cis-N-[1-(3-Methoxy-thiophene-2-carbonyl)-2-methyl-1,2,3,4-tetrahydro-quinolin-4-yl]-N-phenyl-acetamide] was run?
A: < 5 µM

Q: Which IC50 does the source give for `CC(=O)N(c1ccccc1)[C@@H]1C[C@H](C)N(C(=O)c2ccnc(-n3cnnn3)c2)c2ccccc21` (relative stereo) [Example 51, Cis-N-[2-Methyl-1-(2-tetrazol-1-yl-pyridine-4-carbonyl)-1,2,3,4-tetrahydro-quinolin-4-yl]-N-phenyl-acetamide] here?
A: < 5 µM

Q: How did the IC50 turn out when `CC(=O)N(C1CC1)[C@@H]1C[C@H](C)N(C(=O)c2ccccc2)c2ccccc21` (relative stereo) [Example 94, Cis-N-(1-Benzoyl-2-methyl-1,2,3,4-tetrahydro-quinolin-4-yl)-N-Cyclopropylacetamide] was run?
A: < 5 µM

Q: For `COc1ccc(C(=O)N2c3ccccc3[C@H](N(C(C)=O)c3ccccc3)C[C@@H]2C)c(OC)n1` (relative stereo) [Example 20, Cis-N-[1-(2,6-Dimethoxy-pyridine-3-carbonyl)-2-methyl-1,2,3,4-tetrahydro-quinolin-4-yl]-N-phenyl-acetamide], which IC50 is on record?
A: < 5 µM

Q: With `CCN(C(C)=O)[C@@H]1C[C@H](C)N(C(=O)c2cccnc2)c2ccccc21` (relative stereo) [Example 102, Cis-N-Ethyl-N-[2-Methyl-1-(pyridine-3-carbonyl)-1,2,3,4-tetrahydro-quinolin-4-yl]-acetamide] as the molecule, how does the IC50 read?
A: < 5 µM

Q: Which IC50 does the source give for `CCc1cc(C(=O)N2c3ccccc3[C@H](N(C(C)=O)c3ccccc3)C[C@@H]2C)ccn1` (relative stereo) [Example 44, Cis-N-[1-(2-Ethyl-pyridine-4-carbonyl)-2-methyl-1,2,3,4-tetrahydro-quinolin-4-yl]-N-phenyl-acetamide] here?
A: < 5 µM

Q: `CCc1cc(C(=O)N2c3ccccc3[C@H](N(C(C)=O)c3ccccc3)C[C@@H]2C)no1` (relative stereo) [Example 50, Cis-N-[1-(5-Ethyl-isoxazole-3-carbonyl)-2-methyl-1,2,3,4-tetrahydro-quinolin-4-yl]-N-phenyl-acetamide] was tested. Which IC50 did it give?
A: < 5 µM

Q: Which IC50 does the source give for `CC(=O)N(Cc1ccccc1)[C@@H]1C[C@H](C)N(C(=O)c2cccs2)c2ccccc21` (relative stereo) [Example 80, Cis-N-Benzyl-N-[2-methyl-1-(thiophene-2-carbonyl)-1,2,3,4-tetrahydro-quinolin-4-yl]-acetamide] here?
A: < 5 µM

Q: With `CC(=O)N(c1ccccc1)[C@@H]1C[C@H](C)N(C(=O)c2cc(CC(C)C)on2)c2ccccc21` (relative stereo) [Example 69, Cis-N-[1-(5-Isobutyl-isoxazole-3-carbonyl)-2-methyl-1,2,3,4-tetrahydro-quinolin-4-yl]-N-phenyl-acetamide] as the molecule, how does the IC50 read?
A: < 5 µM

Q: Which IC50 does the source give for `CC(=O)N(c1ccccc1)[C@@H]1C[C@H](C)N(C(=O)c2ccccn2)c2ccccc21` (relative stereo) [Example 78, Cis-N-[2-Methyl-1-(pyridine-2-carbonyl)-1,2,3,4-tetrahydro-quinolin-4-yl]-N-phenyl-acetamide] here?
A: < 5 µM

Q: `CC(=O)N(c1ccccc1)C1CCN(C(=O)c2cccs2)c2ccccc21` (stereo not drawn) [Example 99, Cis-N-Phenyl-N-[1-(thiophene-2-carbonyl)-1,2,3,4-tetrahydro-quinolin-4-yl]-acetamide] was tested. Which IC50 did it give?
A: < 5 µM

Q: For `CC(=O)N(c1ccccc1)[C@@H]1C[C@H](C)N(C(=O)c2cccc(C)n2)c2ccccc21` (relative stereo) [Example 71, Cis-N-[2-Methyl-1-(6-methyl-pyridine-2-carbonyl)-1,2,3,4-tetrahydro-quinolin-4-yl]-N-phenyl-acetamide], which IC50 is on record?
A: < 5 µM

Q: With `C#CCN(C(C)=O)C1CC(C)N(C(=O)c2ccccc2)c2ccccc21` (stereo not shown) [Example 87, N-(1-Benzoyl-2-methyl-1,2,3,4-tetrahydro-quinolin-4-yl)-N-prop-2-ynyl-acetamide] as the molecule, how does the IC50 read?
A: < 5 µM

Q: Which IC50 does the source give for `CC(=O)N(c1ccccc1)[C@@H]1C[C@H](C)N(C(=O)c2ccc3nonc3c2)c2ccccc21` (relative stereo) [Example 15, Cis-N-[1-(Benzofurazan-5-carbonyl)-2-methyl-1,2,3,4-tetrahydro-quinolin-4-yl]-N-phenyl-acetamide] here?
A: < 5 µM

Q: With `COC(=O)CC(=O)N(c1ccccc1)[C@@H]1C[C@H](C)N(C(=O)c2ccccc2)c2ccccc21` (relative stereo) [Example 91, Cis-N-(1-Benzoyl-2-methyl-1,2,3,4-tetrahydro-quinolin-4-yl)-N-phenyl-malonamic acid methyl ester] as the molecule, how does the IC50 read?
A: < 5 µM

Q: For `CC(=O)N(c1ccccc1)[C@@H]1C[C@H](C)N(C(=O)c2ccc(Cl)nc2)c2ccccc21` (relative stereo) [Example 18, Cis-N-[1-(6-Chloro-pyridine-3-carbonyl)-2-methyl-1,2,3,4-tetrahydro-quinolin-4-yl]-N-phenyl-acetamide], which IC50 is on record?
A: < 5 µM

Q: With `CC(=O)N(c1ccccc1)[C@@H]1C[C@H](C)N(C(=O)c2cnc3ccccc3c2)c2ccccc21` (relative stereo) [Example 66, Cis-N-[2-Methyl-1-(quinoline-3-carbonyl)-1,2,3,4-tetrahydro-quinolin-4-yl]-N-phenyl-acetamide] as the molecule, how does the IC50 read?
A: < 5 µM

Q: How did the IC50 turn out when `CC(=O)N(c1ccccc1)C1CC(C)N(C(=O)Cc2ccccc2)c2ccccc21` (stereo not drawn) [Example 16, Cis-N-(2-Methyl-1-phenylacetyl-1,2,3,4-tetrahydro-quinolin-4-yl)-N-phenylacetamide] was run?
A: < 5 µM
